These are yes or no findings as the source states them, for the method shown. In cells and extracts the contact can be indirect. Some binding calls cover weakened binding; strength is not graded here.

Chains of the proteins cited; added tags and fusions are not shown.
UniProt P01106: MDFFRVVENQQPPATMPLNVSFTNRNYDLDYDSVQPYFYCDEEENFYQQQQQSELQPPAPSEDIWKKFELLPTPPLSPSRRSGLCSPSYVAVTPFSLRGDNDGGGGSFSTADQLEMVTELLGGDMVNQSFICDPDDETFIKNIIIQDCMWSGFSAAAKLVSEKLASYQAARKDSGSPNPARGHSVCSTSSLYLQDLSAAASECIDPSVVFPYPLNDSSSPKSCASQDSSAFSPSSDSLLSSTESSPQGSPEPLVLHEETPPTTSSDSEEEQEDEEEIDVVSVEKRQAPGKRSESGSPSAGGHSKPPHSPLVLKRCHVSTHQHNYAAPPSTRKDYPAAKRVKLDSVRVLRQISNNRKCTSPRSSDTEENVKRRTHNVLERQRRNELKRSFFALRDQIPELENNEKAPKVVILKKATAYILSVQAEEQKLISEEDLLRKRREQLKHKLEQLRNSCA
UniProt Q92831: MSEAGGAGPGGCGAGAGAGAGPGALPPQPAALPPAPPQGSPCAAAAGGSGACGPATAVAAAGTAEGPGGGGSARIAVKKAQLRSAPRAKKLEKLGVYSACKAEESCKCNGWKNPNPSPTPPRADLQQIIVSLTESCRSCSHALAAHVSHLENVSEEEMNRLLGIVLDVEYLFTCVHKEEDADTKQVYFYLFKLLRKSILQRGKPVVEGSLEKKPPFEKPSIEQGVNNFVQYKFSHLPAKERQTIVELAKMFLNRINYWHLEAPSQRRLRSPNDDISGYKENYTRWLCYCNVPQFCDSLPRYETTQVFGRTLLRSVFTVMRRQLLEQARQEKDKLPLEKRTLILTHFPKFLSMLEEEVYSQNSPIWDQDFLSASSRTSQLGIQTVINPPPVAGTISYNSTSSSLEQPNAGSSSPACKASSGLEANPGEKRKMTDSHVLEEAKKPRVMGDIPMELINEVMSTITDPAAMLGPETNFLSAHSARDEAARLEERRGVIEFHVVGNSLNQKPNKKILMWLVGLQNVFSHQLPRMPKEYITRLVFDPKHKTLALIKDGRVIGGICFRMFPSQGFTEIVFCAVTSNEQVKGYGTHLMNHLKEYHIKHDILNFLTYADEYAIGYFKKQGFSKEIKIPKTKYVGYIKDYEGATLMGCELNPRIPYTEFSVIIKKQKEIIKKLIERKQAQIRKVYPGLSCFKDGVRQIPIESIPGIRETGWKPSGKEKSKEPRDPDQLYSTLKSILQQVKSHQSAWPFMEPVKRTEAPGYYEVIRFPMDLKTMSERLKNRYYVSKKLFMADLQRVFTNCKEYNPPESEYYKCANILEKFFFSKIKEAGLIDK

The target of one assay is Flag-c-MYC (UniProt P01106). Briefly: co-IP; MIA PaCa-2 cells co-transfected with a pCDNA3-2×Flag and a pCDNA3-6×Myc construct; lysates immunoprecipitated with anti-Flag and anti-Myc resins; immunoblots with anti-Flag and anti-Myc antibodies.
Assay [1] addresses Flag-PCAF (p300/CBP-associated Factor) (UniProt Q92831). Described as above.
The target of assay [2] is c-MYC (human (endogenous in pancreatic tissue of AP patients)) (UniProt P01106). The assay can be described thus: co-IP; pancreatic tissues from three AP patients mixed and lysed; immunoprecipitation with IgG or anti-c-MYC antibody on protein A beads; immunoblots for c-MYC, PCAF, CtBP1 and CtBP2. (In western blotting, separated proteins are transferred to a membrane and probed.)

“Myc-CtBP2 (C-terminal Binding Protein 2) (from UniProt P56545 1-445)”: the binding entry with Flag-c-MYC is “no binding”; in assay [1] it was “binds”.
On to “Myc-PCAF (p300/CBP-associated Factor) (from UniProt Q92831 1-832)”, for which the binding entry with Flag-c-MYC is “binds”.
For Myc-c-MYC (from UniProt P01106 1-454), the binding entry in assay [1] was “binds”.
“PCAF (p300/CBP-associated Factor) (from UniProt Q92831 1-832)”: the binding result in assay [2] was “binds”.

For the origin of these results see publication PMC7294942.
